The campaign covered roughly 400,000 compounds. About 13,000 (3.2%) were called active. The shares of active, inactive and inconclusive entries below differ from those in the screen. Calls follow the shape of the dose curve; as a rule, active = well fitted cell-killing curve with a large enough effect; inconclusive = small, poorly fitted or top-dose-only effect, or effect the other way; inactive = flat fitted curve, though single readings scatter. Potencies of inconclusive entries are doubtful fits and often do not repeat.
Assay: qHTS assay for MDR1-selective chemotherapeutics: Primary screen using the drug-selected MDR subline cells KB-V1; also: nearly all actives have a fitted effect of over 60% in size
Details: KB-V1 MDR cells viability, CellTiter-Glo, 72 h; activity change, negative = cytotoxicity: at 46.1 µM (top of the series)
Procedure, shortened: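 Readout: CellTiter-Glo luminescence, 10 min after addition. Cells: KB-V1 MDR subline, 72 h at 37 degrees C with compound. Analysis: corrected, normalized data fitted to concentration-effect curves.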
% is scaled to controls: 0 for no effect and ±100 for the full control effect; potency is read from the fitted curve at half-maximal effect.

SMILES	Potency	activity change, negative = cytotoxicity
COc1ccc(C2SCCN2C(=S)Nc2cccc(Cl)c2)cc1 (stereo not drawn)	active: 7.31 µM	
C[C@@H]1C[C@@H]2O[C@H]2/C=C\C=C\C(=O)Cc2c(Cl)c(O)cc(O)c2C(=O)O1	inconclusive: 0.58 µM [cytotoxic, full curve, poor fit]	
Cc1ccc2nc(NC(=O)C3CCN(C(=O)c4ccc(F)cc4)CC3)sc2c1	inconclusive: 11.6 µM [cytotoxic, partial curve, poor fit]	
CSc1cccc(NC(=O)CCCn2c(=O)c3cccn3c3cccnc32)c1	inconclusive: 8.2 µM [rising, partial curve]	
COc1ccc(-c2nc3c4ccccc4ccn3c2Cc2ccccc2)cc1OC	inconclusive: 29.1 µM [cytotoxic, single point]	
COc1cc(C2c3sc(=O)[nH]c3SC3C4CCC(C4)C23)ccc1O (stereo not drawn)	inconclusive: 23.1 µM [cytotoxic, partial curve]	
CSc1ccccc1OCc1cc(C(=O)NC2CCOC(C)(C)C2)no1 (stereo not drawn)	inconclusive: 20.6 µM [cytotoxic, single point]	
Cc1ccc(NC(=O)c2ccc(OC(F)F)cc2)cc1S(=O)(=O)N(C)C	inconclusive: 29.1 µM [cytotoxic, single point]	
CN1CCc2[nH]c3ccc(Cl)cc3c2C1	inconclusive: 16.4 µM [rising, partial curve]	
CC(C)N1C(=O)c2ccccc2C1C(=O)NC1CCCCCC1 (stereo not drawn)		inactive: 5.67%
Fc1ccc(-c2ccc(CNCc3ccccn3)o2)cc1	inconclusive: 29.1 µM [cytotoxic, single point]	
OC(c1ccc(Cl)c(Cl)c1)c1ncc(-c2ccccc2F)[nH]1 (stereo not drawn)		inactive: -0.764%
Cc1cccc(C)c1-n1nnnc1C1c2ccccc2C(=O)N1C1CC1 (stereo not drawn)		inactive: -12.1%
CC1(C)COC(c2ccc3c(c2)OCO3)OC1	inconclusive: 9.2 µM [rising, partial curve, poor fit]	
COc1ccc(-c2cc(C(C)=O)c(C)n2CCC(=O)Nc2cc(Cl)ccc2C)cc1	inconclusive: 0.0082 µM [cytotoxic, full curve, poor fit]	
CN1CCN(C(=S)c2ccc(-c3cccc(Cl)c3Cl)o2)CC1	inconclusive: 29.1 µM [cytotoxic, single point]	
CC1(c2ccc(Cl)cc2)NC(=O)N(CC(=O)NC(=O)NCc2ccco2)C1=O (stereo not drawn)		inactive: -2.73%
COc1ccc(C(=O)NC2(C(F)(F)F)C(=O)Nc3c2c(=O)[nH]c(=O)n3CCc2ccc(OC)c(OC)c2)cc1 (stereo not drawn)	inconclusive: 5.8 µM [rising, full curve]	
COc1ccc(OC)c(NC(=O)CN(c2ccc(C(C)C)cc2)S(=O)(=O)c2c(C)noc2C)c1		inactive: -13.3%
CCN(CC(=O)Nc1ccccc1C(F)(F)F)C(=O)c1ccccc1OCc1ccc(F)cc1	inconclusive: 10.3 µM [cytotoxic, partial curve]	
O=C(O)c1ccccc1C(c1ccc(O)cc1)c1ccc(O)cc1		inactive: 4.7%
CCOc1ccccc1NC(=O)C1=C(C)NC(=S)NC1c1cccs1 (stereo not drawn)	active: 13 µM	
OC(COc1ccc2cc(Br)ccc2c1)CN1CCCC1 (stereo not drawn)	inconclusive: 29.1 µM [cytotoxic, single point]	

SMILES	Potency	activity change, negative = cytotoxicity
O=C(COc1ccccc1)Nc1ccc2nc(SCCOc3ccccc3)sc2c1		inactive: 12.1%
CC(=O)Oc1ccc(-c2csc(Nc3cccc(C)n3)n2)cc1	inconclusive: 29.1 µM [cytotoxic, single point]	
Cc1cc(Br)ccc1OCC(=O)N1CCCCCC1	inconclusive: 25.9 µM [cytotoxic, partial curve, poor fit]	
CCN(CC(=O)NCc1ccc(F)cc1)C(=O)/C=C/c1cc(OC)ccc1OC	inconclusive: 1.84 µM [cytotoxic, partial curve, poor fit]	
Cc1ccc(Cl)cc1N1CCN(C(=O)c2ccc(CS(=O)(=O)c3ccccc3C)o2)CC1	inconclusive: 14.6 µM [cytotoxic, single point]	
O=C(NCc1ccco1)/C(=C/c1ccco1)NC(=O)c1ccco1		inactive: 6.2%
CCC(C)c1ccc(NC(=O)c2cccnc2)cc1 (stereo not drawn)	active: 20.6 µM	
COc1cc(/C=C(\C#N)c2nc3ccccc3[nH]2)cc(OC)c1O	inconclusive: 16.4 µM [cytotoxic, single point]	
COC(=O)c1ccc2nc(-c3ccco3)c(Cc3cccc(Cl)c3)n2c1	inconclusive: 10.3 µM [cytotoxic, partial curve]	
O=C(NC(=S)Nc1ccc(S(=O)(=O)N2CCCCC2)cc1)c1ccccc1		inactive: -20.3%
Cc1ccc(NS(=O)(=O)c2cccc(C(=O)NC3CC3)c2)c(C)c1		inconclusive: -46.6%
CC(=O)N1N=C(c2ccc(C)cc2)OC1c1ccc(C(C)C)cc1 (stereo not drawn)	inconclusive: 18.4 µM [cytotoxic, partial curve]	
CCOC(=O)c1[nH]c(C)c(CCC(=O)Nc2cc(C)ccc2OC)c1C		inactive: 8.6%
COc1c(C)cc(C(O)c2ncc(-c3ccccc3F)[nH]2)cc1C (stereo not drawn)	inconclusive: 20.6 µM [cytotoxic, single point]	
CC(C)(C)[C@H](N)C(=O)N[C@H]1CCC2C3CC=C4C[C@@H](O)CC[C@]4(C)C3CC[C@@]21C (stereo partly drawn)	inconclusive: 23.1 µM [cytotoxic, partial curve, poor fit]	
O=C(NNC(=S)Nc1ccc(Br)cc1)c1cccnc1		inactive: 18.4%
Cc1nc(SCC(=O)N(C)C2CCCCC2)[nH]c(=O)c1Cc1ccccc1	inconclusive: 23.1 µM [cytotoxic, single point]	
Cc1ccc(C(=O)NCc2ccc3c(c2)OCO3)cc1S(=O)(=O)N1CCOCC1	inconclusive: 16.4 µM [cytotoxic, single point]	
CCCc1ccc(-c2cc(C(=O)N/N=C/c3ccc([N+](=O)[O-])o3)c3ccccc3n2)cc1	active: 8.2 µM	
O=C(O)c1ccc(N2CCCCS2(=O)=O)cc1	inconclusive: 1.16 µM [rising, full curve, poor fit]	
COc1cc(/C=N/NC(=O)c2c(-c3c(Cl)cccc3Cl)noc2C)ccc1OCC(N)=O	inconclusive: 11.6 µM [rising, partial curve]	
COC(=O)[C@]12CCCCC=C1N(Cc1ccccc1)C(=O)[C@H](CC(=O)NCC1CCCCC1)C2	inconclusive: 14.6 µM [cytotoxic, partial curve]	
O=C(N/N=C/c1cccs1)c1ccccn1	inconclusive: 23.1 µM [cytotoxic, partial curve, poor fit]	

Molecules listed so far containing a thiophene ring, fused or not (2):
SMILES	Potency	activity change, negative = cytotoxicity
CCOc1ccccc1NC(=O)C1=C(C)NC(=S)NC1c1cccs1 (stereo not drawn)	active: 13 µM	
O=C(N/N=C/c1cccs1)c1ccccn1	inconclusive: 23.1 µM [cytotoxic, partial curve, poor fit]	

Whole records, looked up by structure:
Fc1ccc(-c2ccc(CNCc3ccccn3)o2)cc1 in the list: Potency: inconclusive: 29.1 µM [cytotoxic, single point]
CCN(CC(=O)NCc1ccc(F)cc1)C(=O)/C=C/c1cc(OC)ccc1OC in the list: Potency: inconclusive: 1.84 µM [cytotoxic, partial curve, poor fit]

Next structures:

SMILES	Potency	activity change, negative = cytotoxicity
O=C(Nc1cc(S(=O)(=O)Nc2ccc(Cl)cc2)ccc1O)c1ccc(F)cc1F	active: 23.1 µM	
COC(=O)[C@]12CCCCC=C1N(Cc1ccc(Cl)cc1Cl)C(=O)[C@H](CC(=O)NCCc1ccccc1OC)C2	inconclusive: 20.6 µM [cytotoxic, single point]	
CCOC(=O)c1nnn(-c2nonc2N)c1CSc1ccccn1	inconclusive: 18.4 µM [cytotoxic, single point]	
CCCOc1ccc(/C(O)=C2/C(=O)C(=O)N(CCCOC)C2c2ccncc2)cc1 (stereo not drawn)	inconclusive: 9.2 µM [rising, partial curve, poor fit]	
COc1ccc(OC)c(/C=N/NC(=O)CC(=O)NCc2ccccc2)c1	inconclusive: 13 µM [rising, single point]	
CN(C)S(=O)(=O)c1cccc(-c2nn(-c3ccccc3)cc2/C=C(/C#N)C(=O)NCc2ccco2)c1		inactive: -26.8%
OC(COc1ccc(CNCCc2ccc(C(F)(F)F)cc2)cc1)CN1CCCCC1 (stereo not drawn)	inconclusive: 29.1 µM [cytotoxic, single point]	
COC(=O)c1c(NC(=O)CSc2ncnc3[nH]ncc23)sc2c1CCC2	inconclusive: 18.4 µM [cytotoxic, partial curve]	
Fc1ccc(-c2noc3ncnc(NCc4ccc(Cl)cc4)c23)cc1		inactive: -3.92%
CCN(CC)C(=O)c1sc(NC(=O)c2c(OC)cccc2OC)c(C#N)c1C	inconclusive: 13 µM [cytotoxic, partial curve, poor fit]	
O=C(CCl)Nc1sccc1C(=O)c1ccccc1	inconclusive: 23.1 µM [cytotoxic, single point]	
Cc1cccc(C(=O)NCCc2ccccc2)c1		inactive: 9.32%
COc1ccc([C@H]2CC(=O)C[C@@H](CCn3cc(C(C)C)nn3)O2)cc1	inconclusive: 16.4 µM [cytotoxic, single point]	
COc1cc2ccccc2cc1C(=O)Nc1ccc(Cc2ccncc2)cc1	active: 9.2 µM	
CCN1c2ccccc2-c2nc3ccccc3n2C1c1cccs1 (stereo not drawn)	inconclusive: 11.6 µM [cytotoxic, partial curve]	
O=[N+]([O-])c1cc(S(=O)(=O)N2CCCCCC2)ccc1Cl		inactive: 26.3%
O=C(CSc1ccc(-c2ccccn2)nn1)N1CCCC1	inconclusive: 16.4 µM [cytotoxic, single point]	
N#Cc1ccccc1S(=O)(=O)N1CCNS(=O)(=O)c2ccccc21	inconclusive: 23.1 µM [rising, partial curve, poor fit]	
Cc1cccc(NC(=O)N2CC(=O)Nc3sc4c(c3C2c2ccccc2)CCCC4)c1C (stereo not drawn)	inconclusive: 8.2 µM [cytotoxic, partial curve, poor fit]	
Cc1ccccc1C1CC(=O)Nc2ccc3ccccc3c21 (stereo not drawn)	inconclusive: 20.6 µM [cytotoxic, single point]	
COc1ccc(NC(=O)C2(C)CCN2Cc2cccc(OC)c2OC)cc1OC (stereo not drawn)	active: 8.2 µM	
CCN(CC)C(=O)CNC(=O)c1nn(-c2ccc(OC)c(Cl)c2)c(=O)c2ccccc12		inactive: -10.6%
